In paper PMC10741905:
Read-outs that look alike come from different tables or passages of the source. Results are given in words; binding and its absence hold for the method and conditions named. Binding seen in cells or lysates may run through a third protein. A yes stands for co-enrichment or nearness to the bait. Other partners may have been found. Values belong to the molecule of their own block, whether it stands above or below them.

The chains behind the UniProt entries cited, without tags or fusion partners. Where a name states a change or a piece, a line headed by the entry shows the natural chain unless it says otherwise.
UniProt I7MFN1: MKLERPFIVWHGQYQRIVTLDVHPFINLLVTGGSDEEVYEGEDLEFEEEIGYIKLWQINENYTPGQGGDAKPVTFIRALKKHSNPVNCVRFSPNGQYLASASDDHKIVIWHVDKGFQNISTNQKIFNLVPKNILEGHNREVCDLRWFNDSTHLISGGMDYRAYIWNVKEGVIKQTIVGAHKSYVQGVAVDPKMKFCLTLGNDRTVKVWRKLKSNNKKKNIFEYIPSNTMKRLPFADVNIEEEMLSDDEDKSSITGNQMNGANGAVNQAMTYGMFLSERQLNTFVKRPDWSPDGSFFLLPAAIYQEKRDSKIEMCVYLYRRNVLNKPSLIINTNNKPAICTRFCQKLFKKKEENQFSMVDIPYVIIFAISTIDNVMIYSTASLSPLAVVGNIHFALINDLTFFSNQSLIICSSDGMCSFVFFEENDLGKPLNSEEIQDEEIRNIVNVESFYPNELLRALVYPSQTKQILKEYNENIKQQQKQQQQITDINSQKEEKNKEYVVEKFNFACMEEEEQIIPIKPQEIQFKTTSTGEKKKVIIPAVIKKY
UniProt O76506: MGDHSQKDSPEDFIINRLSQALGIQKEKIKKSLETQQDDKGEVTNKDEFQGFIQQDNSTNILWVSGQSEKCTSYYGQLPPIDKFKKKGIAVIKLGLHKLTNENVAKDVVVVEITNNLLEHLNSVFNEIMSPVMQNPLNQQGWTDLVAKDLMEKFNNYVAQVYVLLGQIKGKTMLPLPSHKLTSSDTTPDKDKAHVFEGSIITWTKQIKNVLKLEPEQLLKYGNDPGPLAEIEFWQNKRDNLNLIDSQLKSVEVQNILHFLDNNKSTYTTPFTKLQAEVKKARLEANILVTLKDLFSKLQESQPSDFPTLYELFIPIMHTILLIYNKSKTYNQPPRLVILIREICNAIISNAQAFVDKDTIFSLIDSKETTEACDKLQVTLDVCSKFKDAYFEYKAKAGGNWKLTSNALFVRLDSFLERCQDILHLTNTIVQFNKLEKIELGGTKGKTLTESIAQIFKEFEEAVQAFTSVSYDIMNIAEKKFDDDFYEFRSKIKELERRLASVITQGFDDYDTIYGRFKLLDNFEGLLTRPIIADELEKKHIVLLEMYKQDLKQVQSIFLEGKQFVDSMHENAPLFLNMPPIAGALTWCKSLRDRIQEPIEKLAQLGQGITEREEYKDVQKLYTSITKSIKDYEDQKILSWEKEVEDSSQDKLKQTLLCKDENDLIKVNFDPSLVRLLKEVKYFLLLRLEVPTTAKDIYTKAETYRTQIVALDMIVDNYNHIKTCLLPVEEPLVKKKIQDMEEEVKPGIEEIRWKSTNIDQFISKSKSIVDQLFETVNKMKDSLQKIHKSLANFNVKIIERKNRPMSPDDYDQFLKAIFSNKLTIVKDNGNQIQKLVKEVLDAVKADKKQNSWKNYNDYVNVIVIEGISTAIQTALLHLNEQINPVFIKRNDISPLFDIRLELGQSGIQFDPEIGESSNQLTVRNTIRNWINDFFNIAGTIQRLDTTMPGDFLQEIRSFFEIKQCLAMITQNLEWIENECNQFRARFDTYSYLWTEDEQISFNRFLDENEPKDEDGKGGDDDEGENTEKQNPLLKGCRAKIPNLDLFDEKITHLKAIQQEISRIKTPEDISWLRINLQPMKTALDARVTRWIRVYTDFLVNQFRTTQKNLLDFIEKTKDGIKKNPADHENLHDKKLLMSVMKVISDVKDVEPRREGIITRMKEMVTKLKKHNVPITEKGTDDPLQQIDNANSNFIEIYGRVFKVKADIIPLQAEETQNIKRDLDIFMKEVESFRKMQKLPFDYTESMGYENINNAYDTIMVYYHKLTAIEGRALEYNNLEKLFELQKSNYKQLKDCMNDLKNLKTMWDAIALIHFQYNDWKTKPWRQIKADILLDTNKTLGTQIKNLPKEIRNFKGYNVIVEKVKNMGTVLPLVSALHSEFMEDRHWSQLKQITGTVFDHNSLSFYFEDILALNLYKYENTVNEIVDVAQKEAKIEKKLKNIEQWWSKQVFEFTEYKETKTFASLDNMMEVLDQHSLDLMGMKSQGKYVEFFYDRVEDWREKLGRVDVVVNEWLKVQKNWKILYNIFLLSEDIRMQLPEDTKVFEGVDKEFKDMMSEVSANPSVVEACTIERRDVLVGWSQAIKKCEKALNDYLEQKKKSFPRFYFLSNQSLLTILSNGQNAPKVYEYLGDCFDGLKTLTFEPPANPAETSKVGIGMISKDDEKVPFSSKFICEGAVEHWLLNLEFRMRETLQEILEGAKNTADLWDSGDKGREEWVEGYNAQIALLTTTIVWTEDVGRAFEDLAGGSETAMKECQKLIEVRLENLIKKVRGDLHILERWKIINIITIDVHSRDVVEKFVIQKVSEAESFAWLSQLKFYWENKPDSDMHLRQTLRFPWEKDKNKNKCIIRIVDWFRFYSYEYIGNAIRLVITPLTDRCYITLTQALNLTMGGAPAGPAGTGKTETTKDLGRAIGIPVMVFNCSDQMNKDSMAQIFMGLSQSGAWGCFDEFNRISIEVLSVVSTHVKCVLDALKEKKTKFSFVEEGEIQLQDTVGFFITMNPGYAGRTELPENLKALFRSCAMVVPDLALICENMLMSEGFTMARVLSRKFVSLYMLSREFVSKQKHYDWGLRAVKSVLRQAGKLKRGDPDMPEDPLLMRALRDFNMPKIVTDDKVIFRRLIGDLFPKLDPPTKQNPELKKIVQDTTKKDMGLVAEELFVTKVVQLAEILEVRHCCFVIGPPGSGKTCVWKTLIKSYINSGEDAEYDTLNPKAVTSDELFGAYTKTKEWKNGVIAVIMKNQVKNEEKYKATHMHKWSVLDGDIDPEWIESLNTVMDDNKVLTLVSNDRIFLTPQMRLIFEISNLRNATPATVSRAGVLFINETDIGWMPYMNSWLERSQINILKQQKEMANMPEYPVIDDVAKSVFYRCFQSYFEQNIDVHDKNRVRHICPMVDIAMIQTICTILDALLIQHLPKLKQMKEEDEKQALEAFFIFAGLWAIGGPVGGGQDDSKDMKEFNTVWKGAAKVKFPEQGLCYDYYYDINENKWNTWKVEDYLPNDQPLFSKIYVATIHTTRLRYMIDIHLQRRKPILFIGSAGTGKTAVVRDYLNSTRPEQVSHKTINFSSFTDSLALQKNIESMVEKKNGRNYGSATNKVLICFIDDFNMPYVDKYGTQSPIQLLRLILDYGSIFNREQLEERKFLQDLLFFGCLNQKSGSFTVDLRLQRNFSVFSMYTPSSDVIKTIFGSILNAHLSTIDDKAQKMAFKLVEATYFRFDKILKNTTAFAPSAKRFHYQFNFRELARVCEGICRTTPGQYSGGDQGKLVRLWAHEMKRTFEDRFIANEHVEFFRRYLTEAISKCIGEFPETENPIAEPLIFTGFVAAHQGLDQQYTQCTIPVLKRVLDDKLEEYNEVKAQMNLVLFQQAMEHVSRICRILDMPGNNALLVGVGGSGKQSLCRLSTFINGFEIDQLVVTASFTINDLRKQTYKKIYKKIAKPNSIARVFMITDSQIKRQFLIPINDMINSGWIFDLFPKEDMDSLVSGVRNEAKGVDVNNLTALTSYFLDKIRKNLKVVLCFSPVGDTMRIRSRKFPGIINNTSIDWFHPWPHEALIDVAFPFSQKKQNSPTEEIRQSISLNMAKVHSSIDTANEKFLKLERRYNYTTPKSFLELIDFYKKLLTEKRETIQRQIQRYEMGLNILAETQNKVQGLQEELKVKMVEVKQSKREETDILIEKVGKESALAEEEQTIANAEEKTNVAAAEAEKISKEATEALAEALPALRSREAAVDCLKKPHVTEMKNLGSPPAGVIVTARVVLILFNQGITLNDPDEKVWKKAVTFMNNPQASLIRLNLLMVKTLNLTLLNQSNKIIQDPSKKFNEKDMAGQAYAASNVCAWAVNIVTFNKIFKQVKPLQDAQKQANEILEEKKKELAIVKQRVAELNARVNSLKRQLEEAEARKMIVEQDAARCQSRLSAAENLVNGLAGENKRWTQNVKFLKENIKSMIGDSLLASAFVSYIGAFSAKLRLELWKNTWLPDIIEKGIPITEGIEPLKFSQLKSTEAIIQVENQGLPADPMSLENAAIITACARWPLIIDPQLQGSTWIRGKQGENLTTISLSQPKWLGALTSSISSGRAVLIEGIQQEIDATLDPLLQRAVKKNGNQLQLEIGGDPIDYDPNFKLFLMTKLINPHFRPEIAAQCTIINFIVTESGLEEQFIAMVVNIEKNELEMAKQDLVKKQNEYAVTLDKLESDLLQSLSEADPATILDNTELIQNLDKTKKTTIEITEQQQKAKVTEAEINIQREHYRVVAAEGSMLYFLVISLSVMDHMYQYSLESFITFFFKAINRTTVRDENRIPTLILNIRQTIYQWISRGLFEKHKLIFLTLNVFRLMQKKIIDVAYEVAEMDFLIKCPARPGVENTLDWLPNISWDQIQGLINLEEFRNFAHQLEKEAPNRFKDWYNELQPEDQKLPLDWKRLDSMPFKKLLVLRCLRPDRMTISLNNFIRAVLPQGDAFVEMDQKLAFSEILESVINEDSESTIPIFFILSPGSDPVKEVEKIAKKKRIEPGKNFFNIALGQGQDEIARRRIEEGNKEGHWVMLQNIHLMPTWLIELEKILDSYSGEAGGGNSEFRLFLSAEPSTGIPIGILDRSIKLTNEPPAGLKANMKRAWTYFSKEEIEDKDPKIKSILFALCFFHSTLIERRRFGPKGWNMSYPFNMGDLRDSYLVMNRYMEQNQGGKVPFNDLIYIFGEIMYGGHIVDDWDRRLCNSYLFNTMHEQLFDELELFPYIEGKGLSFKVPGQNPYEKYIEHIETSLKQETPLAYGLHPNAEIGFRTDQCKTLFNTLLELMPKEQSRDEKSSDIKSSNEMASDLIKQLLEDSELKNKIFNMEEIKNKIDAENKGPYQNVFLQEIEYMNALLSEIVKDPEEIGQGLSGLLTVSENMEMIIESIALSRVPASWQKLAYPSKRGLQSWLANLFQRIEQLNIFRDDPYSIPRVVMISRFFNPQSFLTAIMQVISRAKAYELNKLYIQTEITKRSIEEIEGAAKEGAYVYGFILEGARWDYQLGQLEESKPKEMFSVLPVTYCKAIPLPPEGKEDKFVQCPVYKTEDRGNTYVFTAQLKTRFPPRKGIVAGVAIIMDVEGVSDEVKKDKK

Columns and labels:
Assay in all cases: affinity purification with mass spectrometry; lysate of conjugating cells 5 h post-pairing on anti-HA agarose beads overnight at 4 °C, seven washes with TBST; interactors: peptide ratio to wild-type cells more than 4
[1] = molecular target: Caf1b-HA (Tetrahymena thermophila) (UniProt I7MFN1)
[2] = molecular target: Hir1-HA (Tetrahymena thermophila) (UniProt Q23DP2)
[3] = molecular target: Caf1b-HA (Tetrahymena thermophila) (UniProt I7MFN1); remark: listed apart in the source

binding [1]: binds
Molecule: Dyh4 (from UniProt O76506 1-4589)

binding [2]: binds
B1: pdd1 (programmed DNA degradation 1) (protein, UniProt Q94996 1-499)
chain: MFTVKSLQQFQAKKAINISIKKMSQKKSLKQKRKQDYSSDTEEEEEDQYEVEKILDSRFNPKTKQKEYLVKWENWPIEDSTWEPYEHLSNVKEIVQAFEKKQKANVMPQPTGPITRVNAQKDPQKKNRLSLNSSISKSLPQEEEIQTSKEDSKKQAVKKFQPASRRKSISSQSDSDLQAEEVPQQPESKKDKNDGAFEEPNNADADETELVFEEIVDKRILDGQTEYLIRFQNVSQPQWVDVGQLIAIKDDVIAYEDKIAAQSQLNKTKNLKENAKHSSQQQQSENNNLETEEVEEDKDSKKRSLLANSKRPTAKRSQPFNQDEEKEKSVTQPTSNLGSKGQSQQVEKEQATNSQTQQPQTAHRSGSRLSQIQSNANQVTQQAQQLSNTNNSSSTSLEVSSKMPSQMSQKRRPIELTEIQQGDFKTDNVDKIEIQGDFNDIMTSRFEVFWKIRQDNVTPASQVYSASYLRRYEPQVLIDFLLQHSNQSQLRQANQQLTH

binding [3]: binds
B2: Smc4 (protein, UniProt Q6PUA5 1-1359)
chain: MNQESTSKVQAQMEEEIPTAKSVVKHTQSLLKNSVLRQNLAGKSEQRLIVKQIVLENFKSYQGRQVIGPFHKRFTSVVGPNGSGKSNLIESLLFVFGKKASWMRLKKLEQLIHNSSKHQNVKKASVEVTFHEIRDKEGEEYEVIPGTEFTVRRTVNKSSVSKYEINDKEVSHVEVTDTLKQKGIDLTNNRFLILQGEVEQISLMKPRSGDPEKPGLLEYLEDIIGSNQFKEDIEKKDEEYEVLQNERREKGERMRIHEADLEKLQESKNLAIEYIRNEKLSYQMTNIIGQIDLLRSKKDIEKFETKIKQNEQQNVEMREKFKQQLKENEQVIKEYKQSKAEIEKKDYEVQKYKGQLKKLNERDELIRQKLVLETENQTKAEKQLEDLQDEYKKAIRDQKEYQSELPEKQDRLRKLLTKKDDEDEKLRELKSKVNNENQKLVKEKKEMEKKLQPIKEKKLEVQSKRDTLQNRFTLISQDATAIQNEYEKNQNELEKAKQLIEDQHTLIKQIAQAIQAIEAGYEKQEADNKECRIIEEKIIKAISECKQKIDQTKQSNQDSQTRNKVLNELMIAQQQGKLRGICGRLGDLAAINEEYDVAITTACGQLDNIIVDRYDDAQNAVNYLRKEKIGKAQFIALDKIEHNRQYMEKQFQCPRGSQRLFDLIQFKDQKYKVAFYFALRNTLVCDNIDLATEIAYGQQRHRVVTKKGELIDDSGVMSGGGAARRGGVASQLKVEISPEEVERYQAEYSRNQQDLEQIRETIQNTNKQLNTFIQEKMYLVKQLEAKKFDQQLQEDNVTRCQNRLKALQKQMDEQEQNAKERQVIKQELEKFESEYHEYDGQIMELNKKITDIDEKINKSGGQELKQQQEICKNIQNQTLELQADVNKKTAKLKDLEKTLKNNEREKNETQERIKKIKASIDPLKDQQQKLEEDAVKVFKDQQQAGQQLAMLQEQQKQRDEQKAGIEKIIKDMKDALEKLKKEKDDFEAKINKAKEDQNRSEHVIANNRNTYKEITKSYDFLQFIDEIAGYQINESEDKKSDDQNNLDNISILEESIMQSMMDEEKNTQDKEDDEEIPENNDKQNKKIRSSKNTKKISSIDVYDDIGQELIEQLENHRESLKIEKAKAEEKLKSMTNDANITTITEFKNKYIEFKSKKEEFERVKNRISELKVDIDRLKKERFEKFMSGFNLISAKLKETYQTLTNGGDAELELIDSLDPFSDGVNFTVRPPKKSWKQISKLSGGEKTLSSLSLVFALHYYKPTPLYFMDEIDAALDFKNVSIVGNYIQERTKNAQFIIISLRNNMFELANKLVGVYKTYDTTKTIAIIPELIYQKIQHLNDDKTDTNQNQNEDKDNKSN
